Assay: Dynamic small animal PET imaging of the rat brain
Assay type: in vivo
Conditions: any time after tracer injection
Protocol: Small animal PET experiments in rats were performed to allow for an initial comparison in single animals that were injected with [^18F]1c or [^18F[1f alone, after preinjection of suvorexant (1 mg/kg), and after pretreatment with cyclosporine A (25 mg/kg) (Fig. 3). […] Therefore, to elucidate the P-gp-mediated transport of the compounds, specific experiments were performed.
Fig. 3 Time-activity curves and horizontal PET slices of the rat brain after injection of [^18F]1c (A, C) and [^18F]1f (B, D). Single animals were injected with the tracer alone (“control”, blue) compared to animals preinjected with suvorexant (1 mg/kg, 15 min prior to tracer injection, each n = 1; “blocking”, red) or cyclosporine A (25 mg/kg, 30 min prior to tracer injection, each n = 1; green)
Ten- to 13-week-old female CD Sprague–Dawley rats (250–300 g, Charles River) were housed with free access to standard rat chow (Purina) and water at all times. Dynamic small animal PET scans were performed on an Inveon™ microPET scanner (Siemens Healthineers AG, Erlangen, Germany). All rats were continuously anesthetized using isoflurane (2–3% in oxygen, 0.8 L/min) and placed on a heating pad (37 °C) during the PET scan. […] The data obtained were finally converted into values expressed as percent of injected dose per gram (%ID/g).

CC[C@H](C)[C@H]1CN(c2nc3ccc([18F])cc3s2)CCCN1C(=O)c1cc(C)ccc1-n1nccn1 [[^18F]1f, {(S)-2-[(S)-sec-butyl]-4-(6-[^18F]fluorobenzo[d]thiazol-2-yl)-1,4-diazepan-1-yl}[5-methyl-2-(2H-1,2,3-triazol-2-yl)phenyl]methanone]
specific binding in the rat brain by PET: No specific binding

Cc1ccc(-n2nccn2)c(C(=O)N2CCCN(c3nc4ccc([18F])cc4s3)CC2)c1 [[^18F]1c, [4-(6-[^18F]fluorobenzo[d]thiazol-2-yl)-1,4-diazepan-1-yl][5-methyl-2-(2H-1,2,3-triazol-2-yl)phenyl]methanone]
specific binding in the rat brain by PET: No specific binding

From PMC11374953, “Heteroaryl derivatives of suvorexant as OX1R selective PET ligand candidates: Cu-mediated ^18F-fluorination of boroxines, in vitro and initial in vivo evaluation” (EJNMMI Research, 2024)
